{"source": "paper PMC3926839", "target": "FLAG-p53 (UniProt P04637)", "assay": "EMSA", "settings": "FLAG-p53 12.5 nM, 10 mM Tris-HCl pH 7.4, 2.5 mM DTT, 0.05% NP-40, 10 min preincubation with chelator at 37 °C, then 3 h with probe at 37 °C, electrophoresis at 4 °C, recombinant protein, protein details: FLAG, label: FITC", "note": "For at least one entry, the source does not settle the construct or the ends of the probe. A weaker result is weaker than the reference pair of the same experiment. At least one verdict was read from the data and is not stated in words by the source."}
{"sequence": "GGACATGCCCGGGCATGTCC (double strand) [p53 consensus probe]", "values": [{"measurement": "binding result", "setting": "Bispicen (Zn(II) chelator) preincubated, inhibits", "result": "binds more weakly"}, {"measurement": "binding result", "setting": "Cyclen (Zn(II) chelator) preincubated, inhibits", "result": "binds more weakly"}, {"measurement": "binding result", "setting": "TPA (Zn(II) chelator) preincubated, inhibits", "result": "binds more weakly"}, {"measurement": "binding result", "setting": "TPEN (Zn(II) chelator) preincubated, inhibits", "result": "binds more weakly"}, {"measurement": "binding result", "setting": "no chelator", "result": "binds"}]}
